PubChem BioAssay AID504786 | Drosophila RNAi Screening Center – 2011
Aim: 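Knock-downs reducing HIF reporter induction by the iron chelator DFO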 (primary screen). Cells: Drosophila S2 cells with a stable HIF luciferase reporter. Reagent: long dsRNA against Drosophila genes, about 0.2 µg dsRNA per well of a 384-well plate. Time to read-out: three days of knock-down, then 20 h of DFO before reading. Conditions: desferrioxamine (DFO) at 100 µM, an iron chelator that mimics hypoxia, for 20 h. Measurement: 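Firefly luciferase driven by the mouse ldh-a hypoxia-response element, measured after 20 h of 100 µM DFO; z-scores per plate, higher means more signal lost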. Direction: z-score: higher = stronger loss of HIF reporter signal.
The screen tested about 21,000 reagents; shown is an unselected part of those that have a named target and a result. 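Primary screen; positive scores mean lost reporter signal, so the sign may be inverted from the usual convention.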 Names joined by + are all predicted targets of the reagent.

no.	target gene	dsRNA	z-score, replicate 1	z-score, replicate 2
1	RhoGAP19D	DRSC20499	-0.2	-0.2
2	RhoGAP19D	DRSC20500	-0.1	0.1
3	mia	DRSC12137	-0.4	-0.2
4	Tusp	DRSC15838	0.2	1.1
5	U2af38	DRSC00796	2.9	3.2
6	CG15390	DRSC00404	0.2	0.6
7	dob	DRSC19948	-0.3	-0.6
8	CG14795	DRSC18513	0.1	1.8
9	Rabex-5	DRSC08628	-0.2	-0.5
10	MED8	DRSC06426	-0.1	0.1
11	fsd	DRSC06166	-0.4	-0.3
12	GCC185	DRSC15493	-0.3	-0.6
13	mh	DRSC20168	0	-0.2
14	Usp12-46	DRSC16175	-0.3	-0.3
15	CG12929	DRSC06242	-0.3	-0.5
16	ttm2	DRSC08268	-0.3	-0.3
17	Atac1	DRSC03155	-0.3	-0.4
18	Prp8	DRSC07293	5.3	4.1
19	fdl	DRSC07279	-0.3	-0.3
20	CG16749	DRSC15146	-0.4	0.4
21	CG6978	DRSC18409	-0.3	-0.5
22	Bro	DRSC08149	-0.3	-0.4
23	Pglym87	DRSC15252	-0.4	-0.3
24	Mlh1	DRSC07473	-0.4	-0.3
25	ATbp	DRSC20906	-0.9	-0.9
26	mRpS26	DRSC10823	0	-0.1
27	CG6283	DRSC16009	0.2	0.5
28	Gprk1	DRSC20732	0.2	-0.2
29	Gprk1	DRSC20916	0.3	0.4
30	Tre1	DRSC18726	-0.3	0.5
31	CG13949	DRSC00367	-0.3	-0.3
32	CG2021	DRSC08546	-0.1	0.4
33	CG31729	DRSC02524	-0.3	-0.6
34	CG31729	DRSC02946	0.1	-0.3
35	4E-T	DRSC17201	-0.4	-0.8
36	4E-T	DRSC17208	-0.5	-0.5
37	CG1368	DRSC19537	-0.4	0
38	CG13725	DRSC10054	-0.6	-0.4
39	CG13996	DRSC02328	0	-0.5
40	CG31663	DRSC00078	-0.3	-0.3
41	CG31663	DRSC00389	-0.2	-0.4
42	CG31663	DRSC00390	-0.7	-0.4
43	CG31663	DRSC00393	-0.1	0
44	CG16800	DRSC02518	-0.3	-0.3
45	CngA	DRSC06580	-0.1	-0.3
46	CngA	DRSC07362	-0.3	-0.4
47	Dnaaf3	DRSC06684	-0.3	-0.3
48	CG12689	DRSC17879	-0.3	0
49	Gat	DRSC17144	-0.3	1.7
50	CG17193	DRSC15187	-0.1	0
51	eco	DRSC11006	-0.3	-0.3
52	Pmvk	DRSC02032	-0.4	-0.7
53	CG16978	DRSC02553	-0.2	-0.6
54	CG13898	DRSC08368	-0.4	-0.8
55	CG8768	DRSC07259	-0.2	-0.5
56	Tom20	DRSC10899	-0.2	-0.3
57	CCT6	DRSC20095	0.1	1.2
58	Arpc1	DRSC03438	0.4	1.1
59	r	DRSC19813	1.2	0
60	r	DRSC19814	1.1	-0.7
61	CG13559	DRSC04197	-0.3	-0.4
62	CG15831 (retired record)	DRSC20816	-0.1	0.1
63	park	DRSC11618	0	0
64	CG30031 + deltaTry + gammaTry	DRSC07622	-0.2	-0.7
65	sut2	DRSC07701	-0.4	-0.3
66	Alg7	DRSC02833	-0.3	-0.1
67	Alg7	DRSC02834	-0.2	0.4
68	CG5235	DRSC10494	-0.1	-0.1
69	CG8399	DRSC07163	-0.2	-0.1
70	CG34396	DRSC04245	-0.1	-0.4
71	CG34396	DRSC04246	-0.1	0
72	CG11726	DRSC09858	-0.2	0
73	Kap-alpha1	DRSC11356	-0.3	0.9
74	twr	DRSC12491	-0.5	-0.9
75	ftz-f1	DRSC11347	-0.3	0
76	Gad1	DRSC08661	-0.1	1.2
77	RpL8	DRSC08532	7.5	6.2
78	RpL8	DRSC08695	7.4	6.8
79	CG14194	DRSC19549	-0.4	-0.3
80	E(spl)mgamma-HLH	DRSC16699	-0.5	-0.5
81	msb1l	DRSC03572	-0.3	0.4
82	Z600	DRSC11317	-0.3	-0.2
83	CG12546 + CG14452	DRSC11709	1.1	0.5

Part of the list above, set out differently.
| target gene | dsRNA | z-score, replicate 1 | z-score, replicate 2 |
| --- | --- | --- | --- |
| Dnaaf3 | DRSC06684 | -0.3 | -0.3 |
| CG12689 | DRSC17879 | -0.3 | 0 |
| Gat | DRSC17144 | -0.3 | 1.7 |
| CG17193 | DRSC15187 | -0.1 | 0 |
| eco | DRSC11006 | -0.3 | -0.3 |
| Pmvk | DRSC02032 | -0.4 | -0.7 |
| CG16978 | DRSC02553 | -0.2 | -0.6 |
| CG13898 | DRSC08368 | -0.4 | -0.8 |
| CG8768 | DRSC07259 | -0.2 | -0.5 |
| Tom20 | DRSC10899 | -0.2 | -0.3 |
| CCT6 | DRSC20095 | 0.1 | 1.2 |
| Arpc1 | DRSC03438 | 0.4 | 1.1 |
| r | DRSC19813 | 1.2 | 0 |
